The results in this text go back to patent US12583855B2, “RET selective inhibitor, preparation method therefor and use thereof” (SHOUYAO HOLDINGS (BEIJING) CO., LTD., priority 2019, dated 2026).

The match of structure and compound is tentative.

The subject of one test is KIF5B-RET/HEK293T cells. Kind of test: Cell proliferation activity in KIF5B-RET/HEK293T cells (Cell-Titer Glo). Particulars: read-out: KIFSB-RETV^804M/293T (Cell)IC50, 72 h.
The subject of a further test is TT cells. Kind of test: TT cell proliferation activity (Cell-Titer Glo). Particulars: read-out: TT (Cell) IC50, TT human thyroid carcinoma cells, 120 h.

As to `CSc1ccc(CN2CCN(c3ccc(-c4cc(-c5cnn(C)c5)cn5ncc(C#N)c45)cn3)CC2)cn1` [Example 10, 6-(1-methyl-1Hpyrazol-4-yl)-4-(6-(4-((6-(methylthio)pyridin-3-yl)methyl)piperazin-1-yl)pyridin-3-yl)pyrazolo[1,5-a]pyridine-3-carbonitrile], the results for the IC50 with KIF5B-RET/HEK293T cells and in the test with TT cells were 352 nM and 17.1 nM, respectively.
